In paper PMC8624523, “Novel GPR120 Agonists with Improved Pharmacokinetic Profiles for the Treatment of Type 2 Diabetes” (Molecules, 2021):

Test: Pharmacokinetic analysis in C57BL/6 mice after gavage administration
Conditions: male, C57BL/6, mouse, in vivo, po, 10 mg/kg

SMILES: Cc1ccc(-c2ccc(F)cc2COc2ccc(CCC(=O)O)cc2)cc1 [TUG-891, reference compound]
- half-life: 39.6 ± 13.8 min
